# Laboratory results published in the supplement of paper PMC7666118.
# By UniProt entry, the sequences of proteins in these tests, tags left out. Where a name states a change or a piece, a line headed by the entry shows the natural chain unless it says otherwise.
# UniProt Q93074, whole entry: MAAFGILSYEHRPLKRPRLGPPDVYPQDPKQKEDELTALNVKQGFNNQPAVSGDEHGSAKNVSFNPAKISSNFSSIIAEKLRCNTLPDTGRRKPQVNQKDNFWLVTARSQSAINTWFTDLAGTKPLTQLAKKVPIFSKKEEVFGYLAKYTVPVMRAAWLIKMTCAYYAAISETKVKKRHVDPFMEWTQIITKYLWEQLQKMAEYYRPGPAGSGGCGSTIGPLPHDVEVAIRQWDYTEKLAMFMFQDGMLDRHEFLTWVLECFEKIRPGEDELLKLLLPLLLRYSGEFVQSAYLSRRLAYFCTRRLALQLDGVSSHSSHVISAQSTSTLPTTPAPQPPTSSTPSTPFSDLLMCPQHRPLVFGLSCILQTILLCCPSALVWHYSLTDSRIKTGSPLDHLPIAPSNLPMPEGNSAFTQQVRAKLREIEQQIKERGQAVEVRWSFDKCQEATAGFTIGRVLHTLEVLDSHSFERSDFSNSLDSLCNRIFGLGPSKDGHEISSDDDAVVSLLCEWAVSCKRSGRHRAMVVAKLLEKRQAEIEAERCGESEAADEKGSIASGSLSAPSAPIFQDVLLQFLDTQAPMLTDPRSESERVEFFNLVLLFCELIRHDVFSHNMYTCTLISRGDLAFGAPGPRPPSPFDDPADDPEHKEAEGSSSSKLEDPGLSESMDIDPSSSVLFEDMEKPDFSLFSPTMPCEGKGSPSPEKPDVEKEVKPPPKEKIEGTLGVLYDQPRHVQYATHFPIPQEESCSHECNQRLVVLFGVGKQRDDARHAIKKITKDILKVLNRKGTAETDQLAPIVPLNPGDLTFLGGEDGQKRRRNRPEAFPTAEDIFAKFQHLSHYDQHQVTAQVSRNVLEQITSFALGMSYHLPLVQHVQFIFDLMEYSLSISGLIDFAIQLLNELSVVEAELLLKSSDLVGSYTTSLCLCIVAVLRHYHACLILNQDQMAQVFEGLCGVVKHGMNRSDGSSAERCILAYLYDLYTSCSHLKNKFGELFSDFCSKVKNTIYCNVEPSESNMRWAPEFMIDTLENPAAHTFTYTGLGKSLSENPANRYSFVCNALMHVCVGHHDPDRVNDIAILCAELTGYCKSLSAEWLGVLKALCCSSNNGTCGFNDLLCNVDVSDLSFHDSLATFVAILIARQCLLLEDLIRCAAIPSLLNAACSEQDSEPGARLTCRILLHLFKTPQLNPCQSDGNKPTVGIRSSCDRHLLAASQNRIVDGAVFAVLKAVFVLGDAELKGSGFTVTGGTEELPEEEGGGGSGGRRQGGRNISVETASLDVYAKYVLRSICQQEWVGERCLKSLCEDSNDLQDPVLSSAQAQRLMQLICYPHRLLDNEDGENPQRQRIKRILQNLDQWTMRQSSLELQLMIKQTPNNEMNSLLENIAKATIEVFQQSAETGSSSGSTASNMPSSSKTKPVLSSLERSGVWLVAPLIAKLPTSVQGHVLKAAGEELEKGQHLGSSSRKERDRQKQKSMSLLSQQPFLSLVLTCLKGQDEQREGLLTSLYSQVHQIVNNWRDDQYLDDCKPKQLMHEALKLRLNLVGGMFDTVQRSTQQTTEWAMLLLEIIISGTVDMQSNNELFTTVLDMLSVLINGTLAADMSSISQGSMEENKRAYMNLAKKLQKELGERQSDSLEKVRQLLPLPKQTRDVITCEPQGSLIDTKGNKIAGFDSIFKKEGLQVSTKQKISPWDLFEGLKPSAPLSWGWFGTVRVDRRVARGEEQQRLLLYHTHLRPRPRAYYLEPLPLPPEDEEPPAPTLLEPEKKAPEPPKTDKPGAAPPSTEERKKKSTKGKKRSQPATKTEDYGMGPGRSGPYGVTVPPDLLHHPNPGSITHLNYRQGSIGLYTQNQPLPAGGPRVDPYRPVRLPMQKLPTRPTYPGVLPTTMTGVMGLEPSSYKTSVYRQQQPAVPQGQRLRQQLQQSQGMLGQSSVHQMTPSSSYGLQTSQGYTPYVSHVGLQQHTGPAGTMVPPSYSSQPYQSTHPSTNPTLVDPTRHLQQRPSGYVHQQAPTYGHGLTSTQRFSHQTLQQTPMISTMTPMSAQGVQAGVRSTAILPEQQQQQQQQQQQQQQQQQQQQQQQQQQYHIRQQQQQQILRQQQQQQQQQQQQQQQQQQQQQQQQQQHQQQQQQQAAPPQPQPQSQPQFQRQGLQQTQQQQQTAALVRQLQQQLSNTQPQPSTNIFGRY
# UniProt O75586: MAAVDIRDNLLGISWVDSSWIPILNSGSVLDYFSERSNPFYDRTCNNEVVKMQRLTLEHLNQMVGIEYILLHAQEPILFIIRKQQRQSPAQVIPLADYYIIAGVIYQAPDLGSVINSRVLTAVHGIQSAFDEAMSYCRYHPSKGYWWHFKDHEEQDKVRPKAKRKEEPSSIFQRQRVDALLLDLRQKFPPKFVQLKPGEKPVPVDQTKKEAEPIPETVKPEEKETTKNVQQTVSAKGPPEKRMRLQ
# UniProt O14880: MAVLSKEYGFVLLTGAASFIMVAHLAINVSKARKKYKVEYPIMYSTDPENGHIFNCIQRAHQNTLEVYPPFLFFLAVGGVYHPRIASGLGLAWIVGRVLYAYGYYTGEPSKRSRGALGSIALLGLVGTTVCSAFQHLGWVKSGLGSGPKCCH
# UniProt Q14814: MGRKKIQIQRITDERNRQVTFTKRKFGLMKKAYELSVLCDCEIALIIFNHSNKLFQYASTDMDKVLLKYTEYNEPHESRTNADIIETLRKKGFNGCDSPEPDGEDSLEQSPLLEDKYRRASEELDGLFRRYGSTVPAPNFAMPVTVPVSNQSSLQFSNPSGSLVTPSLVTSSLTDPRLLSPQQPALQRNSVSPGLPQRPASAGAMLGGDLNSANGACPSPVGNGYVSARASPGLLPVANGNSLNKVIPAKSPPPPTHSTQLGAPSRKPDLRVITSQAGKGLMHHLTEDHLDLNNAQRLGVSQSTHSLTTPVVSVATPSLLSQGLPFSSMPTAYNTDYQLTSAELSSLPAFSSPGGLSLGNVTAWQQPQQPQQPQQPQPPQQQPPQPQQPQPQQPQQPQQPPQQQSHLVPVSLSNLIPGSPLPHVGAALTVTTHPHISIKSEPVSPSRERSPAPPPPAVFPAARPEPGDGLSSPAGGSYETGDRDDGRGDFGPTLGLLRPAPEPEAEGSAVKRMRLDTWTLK
# UniProt Q9H081: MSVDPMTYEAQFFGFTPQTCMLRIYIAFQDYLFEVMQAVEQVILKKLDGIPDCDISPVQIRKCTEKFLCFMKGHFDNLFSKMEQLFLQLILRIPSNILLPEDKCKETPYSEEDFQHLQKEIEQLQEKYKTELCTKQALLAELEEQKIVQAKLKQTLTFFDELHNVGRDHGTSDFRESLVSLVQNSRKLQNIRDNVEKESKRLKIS
# UniProt P43246, whole entry: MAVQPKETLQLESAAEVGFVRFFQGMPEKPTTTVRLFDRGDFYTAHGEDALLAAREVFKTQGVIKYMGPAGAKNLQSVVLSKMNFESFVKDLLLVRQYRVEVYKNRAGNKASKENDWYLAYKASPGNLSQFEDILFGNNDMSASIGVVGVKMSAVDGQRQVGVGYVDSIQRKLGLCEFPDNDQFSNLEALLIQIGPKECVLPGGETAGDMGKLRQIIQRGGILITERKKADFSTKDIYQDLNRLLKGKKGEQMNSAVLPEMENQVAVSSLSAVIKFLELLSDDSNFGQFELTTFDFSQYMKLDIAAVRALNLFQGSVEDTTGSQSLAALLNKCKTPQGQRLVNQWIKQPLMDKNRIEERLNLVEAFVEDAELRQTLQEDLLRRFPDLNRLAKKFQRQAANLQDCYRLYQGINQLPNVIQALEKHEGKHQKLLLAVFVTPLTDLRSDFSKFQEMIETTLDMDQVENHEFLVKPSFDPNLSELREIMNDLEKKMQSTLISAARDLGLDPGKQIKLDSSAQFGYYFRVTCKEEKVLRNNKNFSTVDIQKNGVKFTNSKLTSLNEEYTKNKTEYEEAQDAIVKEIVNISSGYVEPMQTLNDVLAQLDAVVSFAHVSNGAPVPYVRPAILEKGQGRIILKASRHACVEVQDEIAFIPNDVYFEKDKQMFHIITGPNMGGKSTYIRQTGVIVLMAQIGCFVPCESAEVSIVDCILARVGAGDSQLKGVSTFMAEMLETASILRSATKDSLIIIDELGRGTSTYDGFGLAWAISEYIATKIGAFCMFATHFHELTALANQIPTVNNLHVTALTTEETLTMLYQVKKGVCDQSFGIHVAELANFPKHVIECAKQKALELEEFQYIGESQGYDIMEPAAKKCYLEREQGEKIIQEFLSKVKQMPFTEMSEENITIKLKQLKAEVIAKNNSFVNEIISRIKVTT
# UniProt Q9H7Z6: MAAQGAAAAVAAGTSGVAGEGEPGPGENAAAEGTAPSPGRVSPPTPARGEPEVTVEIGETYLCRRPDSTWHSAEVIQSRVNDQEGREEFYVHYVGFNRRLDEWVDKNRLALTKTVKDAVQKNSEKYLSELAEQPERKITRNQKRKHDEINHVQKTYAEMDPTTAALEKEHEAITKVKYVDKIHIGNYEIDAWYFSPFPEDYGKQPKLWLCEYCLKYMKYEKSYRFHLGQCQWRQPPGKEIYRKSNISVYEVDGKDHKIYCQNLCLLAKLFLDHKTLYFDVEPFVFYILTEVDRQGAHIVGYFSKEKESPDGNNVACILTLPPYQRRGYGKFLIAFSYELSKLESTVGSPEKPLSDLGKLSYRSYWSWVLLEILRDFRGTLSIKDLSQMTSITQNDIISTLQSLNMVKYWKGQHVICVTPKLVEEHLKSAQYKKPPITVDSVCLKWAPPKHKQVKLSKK
# UniProt Q8IUF8: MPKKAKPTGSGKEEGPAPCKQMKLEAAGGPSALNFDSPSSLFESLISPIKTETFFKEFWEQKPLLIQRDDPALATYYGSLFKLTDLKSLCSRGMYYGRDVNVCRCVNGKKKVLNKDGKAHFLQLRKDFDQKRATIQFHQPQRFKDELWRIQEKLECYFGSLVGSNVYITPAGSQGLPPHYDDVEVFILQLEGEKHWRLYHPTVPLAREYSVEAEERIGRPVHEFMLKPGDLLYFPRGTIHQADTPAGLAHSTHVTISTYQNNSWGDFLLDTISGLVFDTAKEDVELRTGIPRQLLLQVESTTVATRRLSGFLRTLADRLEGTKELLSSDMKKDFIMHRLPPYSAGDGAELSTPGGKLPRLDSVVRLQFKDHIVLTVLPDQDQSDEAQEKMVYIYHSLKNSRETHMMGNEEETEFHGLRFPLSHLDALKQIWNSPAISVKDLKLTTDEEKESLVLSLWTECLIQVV
# UniProt Q9NRN9: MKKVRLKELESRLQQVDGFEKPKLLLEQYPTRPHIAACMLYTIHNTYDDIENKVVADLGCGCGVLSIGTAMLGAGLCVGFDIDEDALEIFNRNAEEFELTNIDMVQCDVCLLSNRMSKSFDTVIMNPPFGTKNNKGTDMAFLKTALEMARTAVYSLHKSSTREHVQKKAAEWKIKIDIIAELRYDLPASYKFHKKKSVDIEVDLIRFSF
# UniProt Q2M296: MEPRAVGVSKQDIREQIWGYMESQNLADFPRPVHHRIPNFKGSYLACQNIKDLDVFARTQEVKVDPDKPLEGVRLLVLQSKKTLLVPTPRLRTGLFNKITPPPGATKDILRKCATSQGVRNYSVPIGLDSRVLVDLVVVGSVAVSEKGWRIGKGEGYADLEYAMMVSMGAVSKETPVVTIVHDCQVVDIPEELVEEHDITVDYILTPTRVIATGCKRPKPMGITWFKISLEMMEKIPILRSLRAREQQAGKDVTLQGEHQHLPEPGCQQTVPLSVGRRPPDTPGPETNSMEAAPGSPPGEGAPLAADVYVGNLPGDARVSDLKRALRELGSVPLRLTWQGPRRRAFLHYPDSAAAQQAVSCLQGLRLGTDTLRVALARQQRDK
# UniProt P10620: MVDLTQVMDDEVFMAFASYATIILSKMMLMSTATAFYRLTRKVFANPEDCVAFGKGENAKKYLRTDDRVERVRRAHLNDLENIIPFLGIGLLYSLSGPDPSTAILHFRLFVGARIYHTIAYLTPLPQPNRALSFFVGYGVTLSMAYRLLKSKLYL
# UniProt Q68DK7: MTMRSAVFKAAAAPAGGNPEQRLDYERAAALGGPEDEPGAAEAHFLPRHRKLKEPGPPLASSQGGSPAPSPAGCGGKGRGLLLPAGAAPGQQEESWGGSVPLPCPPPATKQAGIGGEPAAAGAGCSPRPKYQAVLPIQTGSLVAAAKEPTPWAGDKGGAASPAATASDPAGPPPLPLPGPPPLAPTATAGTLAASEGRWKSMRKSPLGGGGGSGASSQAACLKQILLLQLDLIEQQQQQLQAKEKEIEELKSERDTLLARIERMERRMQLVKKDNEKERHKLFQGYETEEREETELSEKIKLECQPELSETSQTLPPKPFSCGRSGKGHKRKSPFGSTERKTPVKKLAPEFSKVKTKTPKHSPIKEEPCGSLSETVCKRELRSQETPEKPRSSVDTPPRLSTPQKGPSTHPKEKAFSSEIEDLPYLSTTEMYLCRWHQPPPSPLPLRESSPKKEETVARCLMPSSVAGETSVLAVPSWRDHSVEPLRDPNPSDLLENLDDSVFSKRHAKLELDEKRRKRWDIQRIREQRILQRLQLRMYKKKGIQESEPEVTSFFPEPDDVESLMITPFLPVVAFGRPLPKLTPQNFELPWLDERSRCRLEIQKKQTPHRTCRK
# Some of the results follow.
# Compound: COc1ccc(Cn2ccc3cc(C)c(C(=O)NO)cc32)cc1
# Assay: dose-dependent thermal stabilisation call (2D-TPP, DLPTP, 10% FDR) (binary (1 = stabilised)); higher = stabilised by the compound
# Conditions: system: HL-60 intact cells; concentration range 0.04-10 µM
# Method: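 2D thermal proteome profiling in intact HL-60 cells treated with BRD-3811 (0, 0.04, 0.29, 2, 10 uM) for 90 min at 37 C, then heated 3 min at one of 12 temperatures (42-63.9 C). Soluble protein was quantified by TMT10 MS. The value is the DLPTP call of the paper: dose-dependent thermal stabilisation over all temperatures at 10% FDR (F-test of a dose-response against a flat model); one experiment, one call per tested protein.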
row,Target,dose-dependent thermal stabilisation call
1,MTRF1L (UniProt Q9UGC7),inactive: 0
2,MED12 (UniProt Q93074),inactive: 0
3,MRPL23 (UniProt Q16540),inactive: 0
4,MED6 (UniProt O75586),inactive: 0
5,MRPL9 (UniProt Q9BYD2),inactive: 0
6,MGST3 (UniProt O14880),inactive: 0
7,MFSD10 (UniProt Q14728),inactive: 0
8,MGC16169,inactive: 0
9,MEF2D (UniProt Q14814),inactive: 0
10,MLL2,inactive: 0
11,MTX1 (UniProt Q13505),inactive: 0
12,MICALL1 (UniProt Q8N3F8),inactive: 0
13,MIS12 (UniProt Q9H081),inactive: 0
14,MSH2 (UniProt P43246),inactive: 0
15,N4BP1 (UniProt O75113),inactive: 0
16,MYST1 (UniProt Q9H7Z6),inactive: 0
17,MED17 (UniProt Q9NVC6),inactive: 0
18,MINA (UniProt Q8IUF8),inactive: 0

row,Target,dose-dependent thermal stabilisation call
1,MYO18A,inactive: 0
2,MIA3 (UniProt Q5JRA6),inactive: 0
3,MECR (UniProt Q9BV79),inactive: 0
4,METTL5 (UniProt Q9NRN9),inactive: 0
5,MRPL11 (UniProt Q9Y3B7),inactive: 0
6,MRPL44 (UniProt Q9H9J2),inactive: 0
7,MRPL12 (UniProt P52815),inactive: 0
8,METAP2 (UniProt P50579),inactive: 0
9,MRPL24 (UniProt Q96A35),inactive: 0
10,MTHFSD (UniProt Q2M296),inactive: 0
11,MRS2 (UniProt Q9HD23),inactive: 0
12,MIF4GD (UniProt A9UHW6),inactive: 0
13,MGST1 (UniProt P10620),inactive: 0
14,MSH6 (UniProt P52701),inactive: 0
15,MRPS15 (UniProt P82914),inactive: 0
16,MRPL2 (UniProt Q5T653),inactive: 0
17,MSL1 (UniProt Q68DK7),inactive: 0
18,METTL11A (UniProt Q9BV86),inactive: 0

# Quoted from the listing:
# Under dose-dependent thermal stabilisation call, MED6 (UniProt O75586) has the entry inactive: 0
# Under dose-dependent thermal stabilisation call, MTRF1L (UniProt Q9UGC7) has the entry inactive: 0
